Values quoted from earlier work in patent publication US11241440B2, “Dihydrooxadiazine compounds for treating infections and cancer” (VALORALIA I MÁS D, SL, priority 2016, dated 2022).
For at least one compound, name, drawing or mass did not settle the structure.

Tests used:
A. flavus = A. flavus AF-001; cited from earlier work
A. terreus = A. terreus ATe-001; cited from earlier work
C. parapsilosis = C. parapsilosis CP-007; cited from earlier work
A. fumigatus = A. fumigatus AFu-001; cited from earlier work
Note: key: I = intermediate activity; S = susceptibility; R = Resistance.

In the case of CCC(C)n1ncn(-c2ccc(N3CCN(c4ccc(OCC5COC(Cn6cncn6)(c6ccc(Cl)cc6Cl)O5)cc4)CC3)cc2)c1=O (stereo not shown) [Itraconazole], the “Characteristics of the strains: susceptibility class” value (from here on “Characteristics of the strains”) (A. flavus) is given as “I”, the “Characteristics of the strains” value (A. terreus) is given as “I” and the “Characteristics of the strains” value (C. parapsilosis) is given as “R”. For the same compound, the “Characteristics of the strains” value (A. fumigatus) was “I”.
